Data taken from patent US20240016952A1.
These are yes or no findings as the source states them, for the method shown. Some entries that bind do so weakly or less than the wild type.

Assays:
[1] = target: recombinant human transferrin receptor 1 (human) (UniProt P02786); assay: binding affinity before and after 9 days at 40 °C
[2] = target: recombinant cynomolgus monkey (Macaca fascicularis) transferrin receptor 1 (cynomolgus monkey (Macaca fascicularis)); assay: binding affinity before and after 9 days at 40 °C

B1: humanized anti-TfR Fab 5H12 VH5 (C33Y)/Vκ4 (Fab, V domains shown)
VH: QVQLVQSGAEVKKPGASVKVSCKASGYSFTDYYINWVRQAPGQGLEWMGWIYPGSGNTRYSERFKGRVTITRDTSASTAYMELSSLRSEDTAVYYCAREDYYPYHGMDYWGQGTLVTVSS
VL: DIVMTQSPDSLAVSLGERATINCRASESVDGYDNSFMHWYQQKPGQPPKLLIFRASNLESGVPDRFSGSGSGTDFTLTISSLQAEDVAVYYCQQSSEDPWTFGQGTKLEIKR
binding [1]: binds
binding [2]: binds
